Results taken from PMC6834594, “Structure and regulation of ZCCHC4 in m^6A-methylation of 28S rRNA” (Nature Communications, 2019).

How the values were obtained:
Experiment in all cases: EMSA
ZCCHC4 Y340A (human) = biological target: T1, ZCCHC4 Y340A (human) (UniProt Q9H5U6); settings: EMSA: 20 mM Tris-HCl pH 7.5, 100 mM NaCl, 5% glycerol, 1 mM DTT, 4 C, 1 h; 0.3 uM RNA with 0-1.2 uM protein unless noted; 6% TBE native gel; recombinant …; residues 24-513; protein details: His6-SUMO removed by ULP1; label: none (SYBR Gold stain)
T1 sequence (looked up): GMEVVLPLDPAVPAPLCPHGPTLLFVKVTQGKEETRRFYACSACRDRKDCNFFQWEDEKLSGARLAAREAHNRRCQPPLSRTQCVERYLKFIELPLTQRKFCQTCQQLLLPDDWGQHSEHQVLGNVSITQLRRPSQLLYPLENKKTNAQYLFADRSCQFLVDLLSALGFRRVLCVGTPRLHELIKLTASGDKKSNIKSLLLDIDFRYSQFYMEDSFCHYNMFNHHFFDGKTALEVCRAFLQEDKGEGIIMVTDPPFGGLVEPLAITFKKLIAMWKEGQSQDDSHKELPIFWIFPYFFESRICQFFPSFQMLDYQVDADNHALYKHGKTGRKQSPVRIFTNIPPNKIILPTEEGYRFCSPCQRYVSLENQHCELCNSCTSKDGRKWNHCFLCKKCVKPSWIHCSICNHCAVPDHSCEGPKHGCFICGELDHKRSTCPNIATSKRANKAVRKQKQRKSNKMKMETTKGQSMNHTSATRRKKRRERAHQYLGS

ZCCHC4 F61A (human) = biological target: T2, ZCCHC4 F61A (human) (UniProt Q9H5U6); settings: 0.3 uM protein, 0.6 uM RNA; EMSA: 20 mM Tris-HCl pH 7.5, 100 mM NaCl, 5% glycerol, 1 mM DTT, 4 C, 1 h; 0.3 uM RNA with 0-1.2 uM protein unless noted; 6% TBE native gel; recombinant protein; residues 24-513; protein details: His6-SUMO removed by ULP1; label: none (SYBR Gold stain)
T2 sequence (looked up): T1 sequence (looked up) with F38A, A317Y

ZCCHC4 F76A (human) = biological target: T3, ZCCHC4 F76A (human) (UniProt Q9H5U6); settings: 0.3 uM protein, 0.6 uM RNA; EMSA: 20 mM Tris-HCl pH 7.5, 100 mM NaCl, 5% glycerol, 1 mM DTT, 4 C, 1 h; 0.3 uM RNA with 0-1.2 uM protein unless noted; 6% TBE native gel; recombinant protein; residues 24-513; protein details: His6-SUMO removed by ULP1; label: none (SYBR Gold stain)
T3 sequence (looked up): T1 sequence (looked up) with F53A, A317Y

ZCCHC4 W408A (human) = biological target: T4, ZCCHC4 W408A (human) (UniProt Q9H5U6); settings: 0.3 uM protein, 0.6 uM RNA; EMSA: 20 mM Tris-HCl pH 7.5, 100 mM NaCl, 5% glycerol, 1 mM DTT, 4 C, 1 h; 0.3 uM RNA with 0-1.2 uM protein unless noted; 6% TBE native gel; recombinant protein; residues 24-513; protein details: His6-SUMO removed by ULP1; label: none (SYBR Gold stain)
T4 sequence (looked up): T1 sequence (looked up) with A317Y, W385A

ZCCHC4 D276A (human) = biological target: T5, ZCCHC4 D276A (human) (UniProt Q9H5U6); settings: 0.3 uM protein, 0.6 uM RNA; EMSA: 20 mM Tris-HCl pH 7.5, 100 mM NaCl, 5% glycerol, 1 mM DTT, 4 C, 1 h; 0.3 uM RNA with 0-1.2 uM protein unless noted; 6% TBE native gel; recombinant protein; residues 24-513; protein details: His6-SUMO removed by ULP1; label: none (SYBR Gold stain)
T5 sequence (looked up): T1 sequence (looked up) with D253A, A317Y

Measured: binding result

CGGUACACCUGUCAAACGGUAACGCAGGUG [30-mer 28S rRNA]
binds: ZCCHC4 Y340A (human) | ZCCHC4 F61A (human) | ZCCHC4 F76A (human) | ZCCHC4 W408A (human) | ZCCHC4 D276A (human)

Residue numbers refer to the chain shown, from its start. The exact form of at least one protein or probe is not confirmed. At least one verdict rests on a figure or table, not on a statement of the authors. Where a protein sequence is shown, tags need not be part of it.
